## Screening data, single-dose tests

Data taken from ChEMBL document CHEMBL3988442, “University of Dundee, Small-Polar-MMV Screening Library” (2021).

Mtb glucose medium: 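Growth of Mycobacterium tuberculosis over 3 days (7H9 medium with glucose and tyloxapol); the read-out is not stated. Compounds at 50 µM. The record gives no direction; compounds that gave an IC50 in retests scored well above the rest, so higher reads as more growth inhibition. Of about 69,000 compounds tested this way, about 760 (1.1%) reached 50% or more in at least one test.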
Mtb cholesterol medium: 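Growth of Mycobacterium tuberculosis over 4 days (cholesterol / DPPC medium with tyloxapol); the read-out is not stated. Tested at 50 µM. Higher reads as more growth inhibition (inferred: compounds with an IC50 in retests scored well above the rest). Size under these conditions: about 69,000 compounds, about 370 of them at 50% or above in at least one test.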

Values are the deposited “Percent Effect”, in %.
The record does not define 0% and 100%; most values in the screen are far below 50% and negative numbers occur (in some assays of this library far below -100).
The compounds are a random part of those screened.
Two or more numbers in one place are separate tests of the same structure; such repeats can differ widely.

| Compound | Mtb glucose medium | Mtb cholesterol medium |
|---|---|---|
| `COC(=O)CCN(C)C(=O)c1ccc(-c2cscn2)cc1` | -11.55% | -16.41% and -1.471% |
| `Cn1c2ccccc2c2ncn(CCN3CCOCC3)c(=O)c21` | -36.64% | -14.33% |
| `O=C(NC1CC1)C1CCN(c2nc3nc[nH]c(=O)c3s2)CC1` | 31.43% | 9.174% |
| `Cc1ccc(C(=O)N(C)Cc2ccc3c(c2)OCCO3)c(=O)[nH]1` | -22.73% | -1.064% |
| `CNC(=O)COC1COC2(CCN(Cc3ccncc3F)CC2)C1.O=C(O)C(F)(F)F` (stereo unspecified) | 10.61% | -7.077% |
| `Cc1cnc(N2CCC3(CCCN3C(=O)c3ccco3)CC2)nc1.O=C(O)C(F)(F)F` | 11.42% | 1.74% |
| `CC(c1nccs1)N(C)Cc1ccc(CCC(C)(C)O)cc1` (stereo unspecified) | -9.905% | -0.4277% and 0.5569% |
| `O=S(=O)(NC1CCCCC12OCCO2)c1cc(F)cc(F)c1` (stereo unspecified) | 10.71% and 1.792% | -12.69% |
| `COCC(=O)N1CC2=CC(C)(C)COc3ccc(OC)c(c32)C1` | -9.769% | -15.62% |
| `COc1ccc(-n2ccc(C(=O)N(CCN(C)C)C(C)C)n2)cc1` | 11.05% | 8.2% |
| `CN(C(=O)c1ccc(-n2ncc(C#N)c2N)cc1)C1CCCC1` | 10.03% | -4.743% |
| `CNC(=O)CS(=O)(=O)C1CCN(S(=O)(=O)c2cccc(C(C)=O)c2)CC1` | -3.986% | -12.15% |
| `CC(C)(C)n1nnnc1CN(Cc1ccccc1)Cc1ccccc1Cl` | 31.37% | -6.446% |
| `CN(C)CCNC(=O)c1cc(-c2cnc(N3CCCC3)nc2)cn1C.O=C(O)C(F)(F)F` | -11.03% | 9.216% |
| `Cc1ccc(C(=O)N2CCC3(CC2)c2ccccc2[C@@H](N)[C@@H]3O)cc1F` | -15.62% | -6.77% |
| `CCc1noc(CN2CCC(NC(=O)c3ccc(C)s3)CC2)n1` | 0.4076% | -4.873% |
| `CNS(=O)(=O)Cc1cccc(CNCc2ccsc2)c1` | -3.58% and -34.63% | -8.903% |
| `CC(C)NC(=O)N1CCN(C(=O)C(C)C)CC2(CC(=O)N(C)C2)C1` (stereo unspecified) | 27.29% | 3.997% |
| `CC(C)(O)CN1CCN(C(=O)c2cnn(-c3ccccc3F)c2)CC1` | 25.57% | 0.2139% and -0.7665% |
| `COc1cccc(NC(=O)CCCc2nc(C(C)C)no2)c1` | 17.51% | -5.512% |
| `CSCC(=O)N1CCc2c(cnc(C)c2-c2noc(-c3cscn3)n2)C1` | -13.96% and 6.822% | 12.64% |
| `Cc1cc(=O)n2nc(-c3cccs3)nc2n1CC(=O)NC(C)C` | 27.16% | -4.777% |
| `Cc1nn(C)c(N(C)C)c1CNC(C)COc1ccc(F)cc1` (stereo unspecified) | -13.36% | -5.385% |
| `Cc1nc(CC(=O)N2CCc3nnc(N(C)C)cc3C2)cs1` | -31.19% | -12.39% |
| `Cc1cncc(Oc2ccc(CN)cc2)n1` | 1.514% and 0.3075% | -31.52% |
| `COc1ccc(OC)c(NC(=O)N2CCCC2c2ccco2)c1` (stereo unspecified) | 15.06% | 3.777% |
| `Cc1ccc2nc(C)cc(NCCNS(=O)(=O)c3cccnc3)c2c1` | 1.339% | 2.861% |
| `CC(SCCC(=O)NC(N)=O)c1ccc(F)cc1F` (stereo unspecified) | -5.16% and 10.03% | -1.681% |
| `CCc1cnc(N2CCC3(CCN(CC)C3=O)CC2)nc1` | -20.92% and -2.552% | 5.361% |
| `[H][C@]12CC[C@]([H])(CN(Cc3ccncc3)C1)N(C(=O)C1CCOCC1)C2` | -3.782% and -4.196% | -6.197% |
| `CCNC(=O)c1ccc(NC2CCOC3(CCCC3)C2)nn1` (stereo unspecified) | -46.61% | -27.17% |
| `O=C(O)C(F)(F)F.O=C(O)C(F)(F)F.O=C(O)C(F)(F)F.[H][C@]12C[C@@H](Cn3cccn3)N(c3nccs3)[C@@]1([H])CCN(CC1CC1)C2` | 11.9% | 2.967% |
| `CC(C)N1CCC2(CCCN(C(=O)c3cncn3C)C2)CC1.O=C(O)C(F)(F)F` | -1.722% and 1.734% | 15.58% |
| `O=C(CCc1ccccc1)N1CCCCC1Cn1cccn1` (stereo unspecified) | -6.468% | -10.76% |
| `Cc1cnn(CC2CCCN2C(=O)c2cccc(F)c2F)c1` (stereo unspecified) | -19.1% | -25.91% |
| `CC(C)Nc1nc2c(c(NC3CC3)n1)CCN(C1CCOCC1)CC2` | 19.5% and 7.89% | 16.75% |
| `Cc1cc(C)nc(NC2CC(=O)N(C)C2)n1` (stereo unspecified) | -8.056% and -1.751% | 22.25% |
| `COC[C@H]1CCC[C@]12CN(CCc1ccccc1)CCO2.O=C(O)C(F)(F)F` | 2.633% | -11.72% |
| `CC(C)c1nnc2n1CCN(C(=O)c1ccccc1OCC1CC1)C2` | 12.09% and -7.776% | -0.8154% |
| `O=C(O)C(F)(F)F.O=C(O)C(F)(F)F.O=C(c1ccnnc1)N1CCN(Cc2ccncc2)c2ncccc2C1` | -26.24% | -12.46% |
| `CC(=O)NCCNC(=O)NCCc1c(C)cc(C)cc1C` | 8.589% | -10.11% |
| `CCc1c(C(=O)Nc2ccc(F)c(C(=O)NC)c2)cnn1CC(C)C` | 24.6% | 16.26% |
| `CS(=O)(=O)CCOc1nc(-c2ccccc2Cl)no1` | -11.23% | -16.29% |

Once more, the final 4:

Result for O=C(O)C(F)(F)F.O=C(O)C(F)(F)F.O=C(c1ccnnc1)N1CCN(Cc2ccncc2)c2ncccc2C1 was Mtb glucose medium: -26.24%; Mtb cholesterol medium: -12.46%.
Result for CC(=O)NCCNC(=O)NCCc1c(C)cc(C)cc1C was Mtb glucose medium: 8.589%; Mtb cholesterol medium: -10.11%.
Result for CCc1c(C(=O)Nc2ccc(F)c(C(=O)NC)c2)cnn1CC(C)C was Mtb glucose medium: 24.6%; Mtb cholesterol medium: 16.26%.
Result for CS(=O)(=O)CCOc1nc(-c2ccccc2Cl)no1 was Mtb glucose medium: -11.23%; Mtb cholesterol medium: -16.29%.